Measurements taken from PubChem BioAssay AID493014 (National Center for Advancing Translational Sciences (NCATS), 2011).
Some of the results follow. These are further read-outs of the screen, such as a control signal, another cell line or another target. No call is given for them. Most of these compounds were active or inconclusive in the main read-out, so they are no random draw. The note in brackets gives the kind of curve behind each potency; many fits are weak.

Test: qHTS Assay to Find Inhibitors of Chronic Active B-Cell Receptor Signaling
Conditions: ABC-DLBCL IkBa-CBG/CBR reporter, luminescence ratio (green luciferase fused to IkBa over red control in TMD8 lymphoma cells), 4 h
In short: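 Concentration-response series (up to 46 uM) were applied to TMD8 dual-reporter cells for 4 h at 37C with doxycycline. Green/red ratio, after filter-overlap correction, defined %Activity; red signal alone was normalised to basal cells and zero luminescence.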

[1] = measured here: CBR red luminescence, cell number
[2] = measured here: IkBa-CBG green luminescence

Row | Compound | AC50 [1] | AC50 [2]
1 | O=C(Nc1nccs1)C1CCN(S(=O)(=O)c2cnc[nH]2)CC1 | 29.1 µM [falling, single point] | –
2 | O=C(Nc1cccc(Br)c1)c1cc(=O)c2ccccc2o1 | 1.58 µM [rising, partial curve, poor fit] | –
3 | CCOC(=O)c1sc(NC(=O)CC(C)c2ccccc2)nc1C (configuration not stated) | 1.12 µM [falling, partial curve] | –
4 | CNC(=S)N/N=C(\C)c1ccccc1 | – | 35.5 µM [falling, single point]
5 | O=C(NCCN1C(=O)S/C(=C/c2ccccc2)C1=O)C1CC(=O)N(Cc2ccccc2)C1 (configuration not stated) | 10.3 µM [falling, partial curve] | –
6 | CCOc1cc(C(=O)NC(=S)Nn2cnnc2)cc(OCC)c1OCC | 7.08 µM [falling, full curve, poor fit] | –
7 | CCOc1ccc2nc(NC3=NC(C)(C)C=C(C)N3)nc(C)c2c1 | 29.1 µM [falling, single point] | –
8 | Cc1ccsc1C1CC(=O)Nc2ccccc2S1 (configuration not stated) | 15.8 µM [falling, single point] | –
9 | COC(=O)C1CCN(C(=O)COc2ccc(Cl)cc2)CC1 | 9.2 µM [falling, partial curve] | –
10 | NCC12CC3CC(C1)CC(c1ccc(Br)cc1)(C3)C2 | 35.5 µM [falling, single point] | –
11 | CCOCC(=O)Nc1nc2ccc(C)cc2s1 | 14.6 µM [falling, partial curve] | –
12 | O=c1c2ccccc2nc(/C=C/c2ccc(Br)cc2)n1CCCO | 2 µM [rising, partial curve, poor fit] | –
13 | CCc1ccc(OCC(=O)NC(=S)Nc2ccc(C)cc2C)c(Br)c1 | 6.31 µM [rising, full curve] | –
14 | COC(=O)CSc1ccc(C#N)c(SCC(=O)OC)c1 | 17.8 µM [falling, single point] | –
15 | Cc1ccc(OCCNc2ccc(C(F)(F)F)cc2[N+](=O)[O-])cc1 | 11.6 µM [rising, partial curve] | –
16 | CC(=O)c1ccc2c3c(ccc(O)c13)CC2 | 11.2 µM [rising, partial curve, poor fit] | –
17 | CC(C)Cn1c(N)c(C(=O)NCCN2CCOCC2)c2nc3ccccc3nc21 | 6.51 µM [falling, partial curve, poor fit] | –
18 | COc1ccc(CNC(=O)c2cc(-n3cnnc3)ccc2Cl)cc1 | 6.51 µM [rising, single point] | –
19 | Cc1c(/C(O)=C2/C(=O)C(=O)N(CCN3CCOCC3)C2c2cccs2)cnn1-c1ccccc1 (configuration not stated) | 0.58 µM [rising, partial curve, poor fit] | –
20 | COC(=O)CCC(=O)NC(=S)Nc1cc(Cl)ccc1Cl | 8.91 µM [falling, partial curve, poor fit] | –
21 | COc1cccc(-c2cc(C(=O)N3CCc4ccccc4C3)[nH]n2)c1 | 22.4 µM [falling, partial curve, poor fit] | –
22 | O=C(Nc1cccs1)N1CCN(c2ncccn2)CC1 | 10 µM [falling, partial curve, poor fit] | –

Laid out differently: results already given
Row	Compound	AC50 [1]	AC50 [2]
4	CNC(=S)N/N=C(\C)c1ccccc1	–	35.5 µM [falling, single point]
17	CC(C)Cn1c(N)c(C(=O)NCCN2CCOCC2)c2nc3ccccc3nc21	6.51 µM [falling, partial curve, poor fit]	–
22	O=C(Nc1cccs1)N1CCN(c2ncccn2)CC1	10 µM [falling, partial curve, poor fit]	–

The results go on.

Row | Compound | AC50 [1] | AC50 [2]
23 | Cc1ccc(NC(=O)COC(=O)c2csc3c2CCC(C)C3)cc1S(=O)(=O)N1CCCCC1 (configuration not stated) | – | 3.26 µM [rising, full curve, poor fit]
24 | COc1ccc(S(=O)(=O)N2CCN(C)CC2)c2ccccc12 | 16.4 µM [rising, partial curve, poor fit] | –
25 | O=C(c1ccco1)c1cn(CC(=O)N2CCCC2)c2ccccc12 | 0.708 µM [falling, full curve, poor fit] | –
26 | Cc1ccc(NC(=O)NCC(c2ccccc2)N(C)C)cc1 (configuration not stated) | 8.91 µM [rising, partial curve] | –
27 | Cc1ccnc2nc(C(=O)NCCc3ccc(F)cc3)nn12 | 35.5 µM [falling, single point] | –
28 | CCC(=O)N1CCN(c2ccccc2NC(=O)COc2cccc(C)c2C)CC1 | 15.8 µM [falling, single point] | –
29 | COc1cc(C(=O)Oc2cccc(Nc3ncnc4ccccc34)c2)cc(OC)c1OC | 7.94 µM [falling, partial curve] | –
30 | CCc1cc(=O)oc2c3c(cc(OCC(=O)NCCCCCC(=O)O)c12)OC(C)(C)CC3 | 0.501 µM [rising, partial curve, poor fit] | –
31 | Cc1c(NC(=O)c2ccc(-c3ccccc3)cc2)cccc1C(=O)O | 11.2 µM [falling, partial curve] | –
32 | O=C(c1ccc(CNS(=O)(=O)c2ccccc2)cc1)N1CCN(c2ccccn2)CC1 | 14.1 µM [falling, single point] | –
33 | CCc1nc(SCC(=O)Nc2ccccc2C(=O)OC)n[nH]1 | 6.51 µM [falling, partial curve, poor fit] | –
34 | COC(=O)c1ccc2c(=O)[nH]c(COC(=O)c3[nH]c(C)c(C(C)=O)c3C)nc2c1 | 0.146 µM [rising, full curve, poor fit] | 0.092 µM [falling, full curve, poor fit]
35 | O=C(Nc1ccc(F)c(F)c1)c1cc(S(=O)(=O)NC2CCCC2)ccc1F | 5.01 µM [falling, partial curve, poor fit] | –
36 | COc1ccc(NC(=O)c2ccc(C#CC(C)(C)O)cc2)cc1 | 29.1 µM [falling, single point] | –
37 | O=C(Nc1ccccn1)c1ccc(CN(c2ccccc2)S(=O)(=O)c2ccccc2)cc1 | 12.6 µM [falling, partial curve, poor fit] | –
38 | Cc1cc(NC(=O)c2ccc(C#N)cc2)on1 | 3.55 µM [rising, partial curve, poor fit] | –
39 | N#C/C(=C/c1cccc([N+](=O)[O-])c1)c1nnc2n1CCCCC2 | 29.1 µM [falling, single point] | –
40 | O=C(NC1CC1)C1=C[C@@H](C2CCCCC2)C[C@@H](OCc2ccc(CO)cc2)O1 | 0.1 µM [falling, full curve, poor fit] | –
41 | COc1cccc(NC(=O)N(CCCN2CCOCC2)C(C)c2cc3ccccc3o2)c1 (configuration not stated) | 18.4 µM [falling, single point] | –
42 | CC(=O)n1cc([C@@H]2C=C(C(=O)Nc3ccccc3)O[C@H](OCc3ccc(CO)cc3)C2)c2ccccc21 | 11.2 µM [falling, partial curve] | –
43 | CCOC(=O)C1=C(c2ccccc2)OC(N)=C(C#N)C1c1cccs1 (configuration not stated) | 35.5 µM [falling, single point] | –
44 | Cc1c[nH]c2cccc(OCC(CNC(C)(C)C)OC(=O)c3ccccc3)c12 (configuration not stated) | 15.8 µM [falling, single point] | –

Sorted by count of non-hydrogen atoms (falling): three of the compounds above
Row | Compound | AC50 [1] | AC50 [2]
32 | O=C(c1ccc(CNS(=O)(=O)c2ccccc2)cc1)N1CCN(c2ccccn2)CC1 | 14.1 µM [falling, single point] | –
35 | O=C(Nc1ccc(F)c(F)c1)c1cc(S(=O)(=O)NC2CCCC2)ccc1F | 5.01 µM [falling, partial curve, poor fit] | –
25 | O=C(c1ccco1)c1cn(CC(=O)N2CCCC2)c2ccccc12 | 0.708 µM [falling, full curve, poor fit] | –

Continued.

Row | Compound | AC50 [1] | AC50 [2]
45 | COc1ccccc1C(c1nnnn1CCc1ccccc1)N1CCCCCC1 (configuration not stated) | 29.1 µM [falling, single point] | –
46 | CCCC(=O)Nc1sc2c(c1C#N)CCCCC2 | 1.3 µM [rising, full curve, poor fit] | –
47 | O=C(COC(=O)c1ccc(Cl)nc1)Nc1ccc2ccccc2c1 | 32.6 µM [rising, single point] | –
48 | O=c1c2[nH]c3ccccc3c2ncn1Cc1ccco1 | 35.5 µM [falling, single point] | –
49 | Nc1c(S(=O)(=O)c2cccc(Cl)c2)c2nc3ccccc3nc2n1/N=C/c1ccc(O)c(O)c1 | 3.98 µM [falling, partial curve, poor fit] | –
50 | COC(=O)c1cc(NS(=O)(=O)c2ccc(N3CCC(C)CC3)c([N+](=O)[O-])c2)cc(C(=O)OC)c1 | 0.116 µM [falling, full curve, poor fit] | –
51 | O=[N+]([O-])c1cccc(-c2nnc(-c3ccccc3F)o2)c1 | 0.501 µM [rising, full curve, poor fit] | –
52 | Cc1nn(C(=O)c2cccs2)c(N)c1-c1ccccc1 | 6.51 µM [rising, partial curve, poor fit] | –
53 | C=CCNC(=O)c1ccccc1NC(=O)COc1ccccc1 | 35.5 µM [falling, single point] | –
54 | CCn1c(=O)c([N+](=O)[O-])c(Cl)c2ccccc21 | 15.8 µM [rising, partial curve] | 8.91 µM [falling, partial curve]
55 | C=CCn1c(=NC(=O)c2cccs2)sc2cc(NC(C)=O)ccc21 | 28.2 µM [falling, single point] | –
56 | Oc1ccc(Br)cc1-c1nc2cnccn2c1NC1CCCCC1 | 0.651 µM [falling, full curve, poor fit] | –
57 | O=S(c1ccsc1)c1ccsc1 | 29.1 µM [rising, single point] | –
58 | O=c1[nH]c(CSc2nc(-c3ccccc3)cs2)nc2ccccc12 | 29.1 µM [falling, single point] | –
59 | CC(C)Cc1ccc(S(=O)(=O)N2CCN(C(=O)c3ccco3)CC2)cc1 | 8.91 µM [falling, partial curve] | –
60 | COc1cccc(C(=O)N2CCn3c2nc2ccccc23)c1 | 5.01 µM [rising, partial curve] | –
61 | COc1ccc(-c2c(N)nnc3c2[nH]c2ccccc23)cc1OC | 12.6 µM [falling, single point] | –
62 | CC1=CC(c2ccccc2)=NS(=O)(=O)N1 | 11.6 µM [rising, partial curve, poor fit] | –
63 | CCONC(=O)Nc1ccccc1[N+](=O)[O-] | 8.2 µM [rising, partial curve, poor fit] | 18.4 µM [falling, partial curve, poor fit]
64 | CC(=O)c1c(C)[nH]c(C(=O)Nc2ccc(C)cc2Br)c1C | 1.26 µM [rising, full curve, poor fit] | –
